The values below come from paper PMC9226154.

No constants are given. Whether binding was seen depends on the method and setting. Binding seen in cells or lysates may run through a third protein. A result given as binding can be weak or reduced; the word gives no strength. For some assays here: Tags and fused reporters may be left off the sequences shown.

Test [1] has as its target T1, ASNS (asparagine synthetase), form not stated (human) (UniProt P08243).
T1 sequence: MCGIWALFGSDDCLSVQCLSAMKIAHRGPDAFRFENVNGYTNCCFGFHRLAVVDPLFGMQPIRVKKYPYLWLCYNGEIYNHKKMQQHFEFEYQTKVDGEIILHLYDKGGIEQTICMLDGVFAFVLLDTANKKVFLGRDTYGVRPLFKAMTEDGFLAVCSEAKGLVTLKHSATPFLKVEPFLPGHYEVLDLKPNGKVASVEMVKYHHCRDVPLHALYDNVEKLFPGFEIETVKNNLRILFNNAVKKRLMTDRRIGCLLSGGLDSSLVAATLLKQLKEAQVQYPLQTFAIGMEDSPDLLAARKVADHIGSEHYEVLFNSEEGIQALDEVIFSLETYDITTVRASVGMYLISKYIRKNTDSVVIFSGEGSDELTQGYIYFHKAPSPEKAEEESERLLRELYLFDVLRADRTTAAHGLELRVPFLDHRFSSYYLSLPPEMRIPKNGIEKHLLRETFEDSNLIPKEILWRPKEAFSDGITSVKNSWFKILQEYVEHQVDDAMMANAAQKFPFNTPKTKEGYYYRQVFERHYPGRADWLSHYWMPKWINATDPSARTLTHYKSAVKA
Description: co-IP; ASNS purified by IgG magnetic beads, co-precipitate detected by blot; cells not given.

The target of test [2] is T2, ASNS-FLAG (asparagine synthetase) (human) (UniProt P08243).
T2 sequence: T1 sequence
Description: co-IP; AKT-HA and ASNS-FLAG plasmids transfected into HEK-293T cells for 2 days; AKT or ASNS purified by magnetic beads, co-precipitate detected by blot.

On to “AKT (as found with ASNS in Fig. 6H) (enzyme)”, for which, in test [1], the binding result is listed as “binds”. For AKT-HA (enzyme), the binding result in test [2] was “binds”.
